The target of this test is T1, APOBEC3G-Myc fusion protein (human, UniProt Q9HC16 1-384).
T1 construct: Human APOBEC3G coding region cloned from H9 cells into pcDNA3.1/Myc-His C; It was expressed in 293T/COS7 cells and used in cell extracts or adsorbed on Ni-NTA agarose; also called APOBEC3G-Myc-His
The experiment in a line: co-immunoprecipitation with 9E10 anti-Myc, Vif immunoblot. In general terms: Immunoblotting shows a protein as a band on a membrane.

B1: Vif(Δ10) deletion mutant (other)
chain: MENRWQVMIVWQVDRMRINTWKRLVKHHMYISRKAKDWFYRHHYESTNPKISSEVHIPLGDAKLVITTYWGLHTGERDWHLGQGVSIEWRKKRYSTQVDPDLADQLIHLHAAVSPRCEYQAGHNKVGSLQYLALAALIKPKQIKPPLPSVRKLTEDRWNKPQKTKGHRGSHTMNGH
notes: also called Vif(?10)
B1: the binding result is given as “no binding”.

Values taken from patent publication US20040234956A1 (OREGON HEALTH AND SCIENCE UNIVERSITY, published 2004).
